PubChem BioAssay AID504808 | Drosophila RNAi Screening Center, 2011
Screen: 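Fly genes required to hold E2F transcription in check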 (primary screen). Cell system: Drosophila S2 cells. Reagent: long dsRNA against Drosophila genes. Detection: 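Dual luciferase plate measurements; E2F-specific signal taken as firefly over Renilla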. Reading the numbers: E2F firefly: higher = more E2F reporter activity; Renilla normaliser: higher = more normaliser reporter signal. Hit rule: 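a knock-down counted as active when the firefly/Renilla E2F signal rose above 50%, a threshold chosen arbitrarily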.
In all, the deposit lists about 21,000 reagents; shown is an unselected part of those that have a named target and a result. Of all reagents, 18 (0.084%) are marked active. 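Raw counts without plate normalisation, one of two replicates; the ratio scores behind the calls were not deposited.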 Names joined by + are all predicted targets of the reagent. The record does not give: the amount of reagent, the time to read-out.

no.	predicted target	dsRNA	E2F firefly, rep 1	Renilla normaliser, rep 1	Call
1	Ugalt	DRSC18467	1.09e5	4945	inactive
2	Nach	DRSC07478	1.38e5	5686	inactive
3	CG12061	DRSC20715	1.39e5	6939	inactive
4	CG1738	DRSC19772	97006	5656	inactive
5	LysE	DRSC08675	1.05e5	4306	inactive
6	CG8501	DRSC07198	206	43	inactive
7	Sgs4	DRSC18715	1.32e5	6114	inactive
8	CG42697	DRSC05740	1.70e5	7436	inactive
9	CG7406	DRSC20042	1.58e5	6284	inactive
10	CG31445	DRSC14443	2033	832	inactive
11	ebi	DRSC00816	79120	3708	inactive
12	CG11123	DRSC06040	1.50e5	4737	inactive
13	ken	DRSC04696	41649	179	inactive
14	CG14053	DRSC17908	1.19e5	6371	inactive
15	VhaAC39-2	DRSC15609	1.04e5	6438	inactive
16	CG34444	DRSC06435	96240	5074	inactive
17	mamo	DRSC19370	1.23e5	15622	inactive
18	Aef1	DRSC11605	1.25e5	6284	inactive
19	IntS9	DRSC10493	63959	3128	inactive
20	mei-9	DRSC18792	97666	5267	inactive
21	CG13607	DRSC14610	1.22e5	5521	inactive
22	BaraC	DRSC03885	1.27e5	5188	inactive
23	Liprin-alpha	DRSC02132	94284	3808	inactive
24	CG8545	DRSC07210	159	34	inactive
25	nemy	DRSC05357	1.24e5	5802	inactive
26	nemy	DRSC07262	82922	6202	inactive
27	CG8945	DRSC20129	1.58e5	7301	inactive
28	CG8945	DRSC20130	1.62e5	7405	inactive
29	CG33937 (retired record)	DRSC15148	1.36e5	6348	inactive
30	Cpr57A + Obp57d	DRSC06708	83170	3428	inactive
31	Obp50c + Obp50b	DRSC05482	1.24e5	4911	inactive
32	CG8004	DRSC10947	80599	3518	inactive

An excerpt taken from the entries so far, as a working copy:
no.	predicted target	dsRNA	E2F firefly, rep 1	Renilla normaliser, rep 1	Call
18	Aef1	DRSC11605	1.25e5	6284	inactive
19	IntS9	DRSC10493	63959	3128	inactive
20	mei-9	DRSC18792	97666	5267	inactive
21	CG13607	DRSC14610	1.22e5	5521	inactive
22	BaraC	DRSC03885	1.27e5	5188	inactive
23	Liprin-alpha	DRSC02132	94284	3808	inactive
24	CG8545	DRSC07210	159	34	inactive

Further records follow.
no.	predicted target	dsRNA	E2F firefly, rep 1	Renilla normaliser, rep 1	Call
33	CG33285	DRSC11463	93277	4187	inactive
34	Tsp42Er	DRSC06183	1.55e5	5662	inactive
35	CG13308	DRSC09979	1.08e5	4011	inactive
36	CG14720	DRSC14942	1.51e5	6611	inactive
37	Ppr-Y	DRSC20892	82078	2761	inactive
38	Tim9a	DRSC19753	1.00e5	5605	inactive
39	Moca-cyp	DRSC15364	1875	900	inactive
40	CG7011	DRSC09347	1.28e5	3787	inactive
41	gig	DRSC11351	63653	3452	inactive
42	RpL27A	DRSC00781	92392	144	inactive
43	CG14607	DRSC12551	1.01e5	6062	inactive
44	CG10337	DRSC02038	97139	3868	inactive
45	CG18609	DRSC06775	1.38e5	4584	inactive
46	sw	DRSC20388	82111	2798	inactive
47	Alg7	DRSC02833	95519	3337	inactive
48	Alg7	DRSC02834	95949	4708	inactive
49	Pglym78	DRSC16787	1915	1124	inactive
50	TM9SF3	DRSC09747	95922	3926	inactive
51	hfp	DRSC08731	84200	4310	inactive
52	hfp	DRSC08732	94640	4146	inactive
53	Mics1	DRSC12537	1.45e5	6197	inactive
54	CG9143	DRSC07338	71110	4207	inactive
55	CG13028	DRSC09908	1.70e5	8836	inactive
56	kek2	DRSC03552	1.67e5	6638	inactive
57	CG11698	DRSC14355	50828	3492	inactive
58	CG13473	DRSC10017	76820	3589	inactive
59	promL	DRSC08733	75053	4205	inactive
60	ACXA	DRSC00844	1.01e5	4224	inactive
61	pb	DRSC12409	70679	3637	inactive
62	pb	DRSC12629	1.35e5	5797	inactive
63	vilya	DRSC18588	1.16e5	5407	inactive
64	Reph	DRSC00634	75033	3628	inactive
65	ReepA	DRSC04572	84879	3369	inactive
66	ast	DRSC00803	84530	3584	inactive
67	sax	DRSC07675	3020	211	inactive
68	CG1387	DRSC17904	7528	700	inactive
69	CG30371	DRSC06835	1.49e5	5343	inactive
70	CG2182	DRSC12308	62111	3495	inactive
71	Polr3B	DRSC07536	2718	212	inactive
72	CG1529	DRSC20515	1.42e5	6556	inactive
73	CG13931	DRSC08400	98007	4041	inactive
74	CG17652	DRSC00511	1.74e5	5919	inactive
75	CG11600	DRSC14332	1.26e5	5375	inactive
76	CG9674	DRSC11088	70054	3519	inactive
77	CG9674	DRSC11089	1.42e5	6737	inactive
78	CG3556	DRSC18309	1833	808	inactive
79	CCT6	DRSC20095	8156	948	inactive
80	CG9021	DRSC03128	78649	3825	inactive
81	CG32772	DRSC18052	1.17e5	2372	inactive
82	CG32772	DRSC18406	7610	776	inactive
83	Liprin-beta	DRSC09795	99668	6758	inactive
84	sad	DRSC16630	1.39e5	6462	inactive
